Results: PubChem BioAssay AID330 (DTP/NCI, 2004)
The list does not hold the whole screen: it is rich in T/C values a quarter to a half above the control, in often repeated tests (any T/C) and in doses without a T/C. Further doses and runs are listed elsewhere. T/C: endpoint of the treated group in % of that of the vehicle group. Some entries give survivors of the animals treated and no T/C: the source files T/C as zero there, which appears to mark a toxic dose or a test without result, not a measured value. Some survivor counts are full or nearly so, which does not show that the dose was tolerated: the source hardly ever lists a survival T/C far under the control, and the zero likely stands for such cases as well. Survivors were counted at the toxicity check, usually on the fifth day, unless a day is given; later deaths do not show. Schedules are NCI's codes, read here as Q, the interval in days (D) or hours (H), X, the number of doses. Where survival is the endpoint, the PubChem record calls one and a half times the control and up active, and a quarter to a half above the control has no call in these data; cut-offs in other NCI protocols can differ. Some entries hold several experiments; the results are listed from low to high. Some T/C values carry the count of animals alive at the toxicity check (mostly the fifth day); without a count, all were alive then.

System: P388 leukemia ip, CD2F1 mice, survival T/C
Assay: NCI In Vivo Anticancer Drug Screen. Data for tumor model P388 Leukemia (intraperitoneal) in CD2F1 (CDF1) mice
Conditions: T/C endpoint: median survival time, higher T/C = longer survival
[1] = dose: 100.0 mg/kg/injection, schedule: Q01DX009 (ip), vehicle: saline
[2] = dose: 200.0 mg/kg/injection, schedule: Q01DX009 (ip), vehicle: saline
[3] = dose: 120.0 mg/kg/injection, schedule: Q01DX005 (ip), vehicle: saline with Tween-80
[4] = dose: 240.0 mg/kg/injection, schedule: Q01DX005 (ip), vehicle: saline with Tween-80
[5] = dose: 200.0 mg/kg/injection, schedule: Q01DX005 (ip), vehicle: Klucel (hydroxypropylcellulose) (HPC)
[6] = dose: 100.0 mg/kg/injection, schedule: Q01DX009 (ip), vehicle: Klucel (hydroxypropylcellulose) (HPC)
[7] = dose: 200.0 mg/kg/injection, schedule: Q04DX003 (ip), vehicle: saline with Tween-80
[8] = dose: 100.0 mg/kg/injection, schedule: Q01DX009 (ip), vehicle: saline with Tween-80
[9] = dose: 100.0 mg/kg/injection, schedule: Q01DX005 (ip), vehicle: saline with Tween-80
[10] = dose: 200.0 mg/kg/injection, schedule: Q01DX005 (ip), vehicle: saline with Tween-80
[11] = dose: 50.0 mg/kg/injection, schedule: Q01DX009 (ip), vehicle: Klucel (hydroxypropylcellulose) (HPC)
[12] = dose: 200.0 mg/kg/injection, schedule: Q01DX009 (ip), vehicle: saline with Tween-80
[13] = dose: 400.0 mg/kg/injection, schedule: Q04DX002 (ip), vehicle: saline with Tween-80
[14] = dose: 100.0 mg/kg/injection, schedule: Q01DX001 (ip), vehicle: Klucel (hydroxypropylcellulose) (HPC)
[15] = dose: 200.0 mg/kg/injection, schedule: Q01DX001 (ip), vehicle: Klucel (hydroxypropylcellulose) (HPC)

With `O=c1[nH]cccc1[N+](=O)[O-]` the T/C (dose: 50.0 mg/kg/injection, schedule: Q01DX009 (ip), vehicle: saline) was 93, 95, 101, 107 % of control, the T/C [1] was 91, 99, 103, 106 % of control and the T/C [2] was 92, 101, 105, 110 % of control. For the same molecule, the T/C (dose: 400.0 mg/kg/injection, schedule: Q01DX009 (ip), vehicle: saline) was 92, 94 [5 of 6 alive], 100 [5 of 6 alive], 111 % of control.
With `CC(=O)OCC1(OC(=O)CC(C)C)COC(O)C2C(C=O)=CC=C21` (stereo unspecified) the survivor count (dose: 25.0 mg/kg/injection, schedule: Q01DX005 (ip), vehicle: Klucel (hydroxypropylcellulose) (HPC)) was 5 of 6, the survivor count (dose: 50.0 mg/kg/injection, schedule: Q01DX005 (ip), vehicle: Klucel (hydroxypropylcellulose) (HPC)) was 0 of 6 and the survivor count (dose: 100.0 mg/kg/injection, schedule: Q01DX005 (ip), vehicle: Klucel (hydroxypropylcellulose) (HPC)) was 0 of 6.
In the case of `N#Cc1[nH]ncc1[N+](=O)[O-]`, the survivor count (dose: 100.0 mg/kg/injection, schedule: Q01DX001 (ip), vehicle: saline with Tween-80) is reported as 0 of 6, the survivor count (dose: 200.0 mg/kg/injection, schedule: Q01DX001 (ip), vehicle: saline with Tween-80) is reported as 0 of 6 and the survivor count (dose: 400.0 mg/kg/injection, schedule: Q01DX001 (ip), vehicle: saline with Tween-80) is reported as 0 of 6.
`O=C(NNc1ncccn1)c1ccc(C(=O)NNc2ncccn2)cc1` was tested, and the survivor count (dose: 30.0 mg/kg/injection, schedule: Q01DX005 (ip), vehicle: saline with Tween-80) was 6 of 6, the survivor count (dose: 60.0 mg/kg/injection, schedule: Q01DX005 (ip), vehicle: saline with Tween-80) was 6 of 6 and the survivor count [3] was 6 of 6. The survivor count [4] was 6 of 6.
In the case of `[CH3][Sn]1([CH3])[O]P(=O)(c2ccccc2)[O]1`, the survivor count [1] is reported as 0 of 6 and the survivor count [2] is reported as 0 of 6.
With `CC1(C)NC2Cc3c([nH]c4ccccc34)C3(C)CCC1CC23` (stereo unspecified) the survivor count [5] was 0 of 5.
For `Cc1noc2c1N=C(c1ccccc1)CC(c1ccccc1)C2` (stereo unspecified), the survivor count [6] was 6 of 6.
`CP1(C)=NP(C)(C)=NP(C)(C)=NP(C)(C)=N1.[Cl][Pt]([Cl])([Cl])[Cl]` was tested, and the T/C (dose: 25.0 mg/kg/injection, schedule: Q04DX003 (ip), vehicle: saline with Tween-80) was 131 % of control, the survivor count (dose: 100.0 mg/kg/injection, schedule: Q04DX003 (ip), vehicle: saline with Tween-80) was 1 of 5 and the survivor count [7] was 0 of 5.
`COc1cccc2c1C(=O)c1c(O)c3c(c(O)c1C2=O)CC(O)(C(=O)CO)CC3OC1CC(NC(=O)C(F)(F)F)C(OC2CC(N)C(O)C(C)O2)C(C)O1` (stereo unspecified) was tested, and the T/C (dose: 6.25 mg/kg/injection, schedule: Q04DX003 (ip), vehicle: water) was 125 % of control.
`CC1CCC(n2cnc3c(=S)nc[nH]c32)O1` (stereo unspecified) was tested, and the T/C [8] was 135 % of control and the survivor count (dose: 400.0 mg/kg/injection, schedule: Q01DX009 (ip), vehicle: saline with Tween-80) was 5 of 6.
For `CC1=CC(O)C(O)C2(C)C1CC1OC(=O)CC3C(C)C(O)C(=O)C2C13CO` (stereo unspecified), the survivor count (dose: 50.0 mg/kg/injection, schedule: Q01DX005 (ip), vehicle: saline with Tween-80) was 3 of 6, the survivor count [9] was 1 of 6 and the survivor count [10] was 0 of 6.
In the case of `C1CCC2OCCOCCOC3CCCCC3OCCOCCOC2C1` (stereo unspecified), the survivor count (dose: 12.5 mg/kg/injection, schedule: Q01DX009 (ip), vehicle: Klucel (hydroxypropylcellulose) (HPC)) is reported as 6 of 6, the T/C (dose: 25.0 mg/kg/injection, schedule: Q01DX009 (ip), vehicle: Klucel (hydroxypropylcellulose) (HPC)) is reported as 128 % of control and the T/C [11] is reported as 93 [5 of 6 alive], 118 [4 of 6 alive], 124 % of control [5 of 6 alive]. The survivor count [11] was 4 of 6, the survivor count [6] was 0 of 6 and the survivor count (dose: 200.0 mg/kg/injection, schedule: Q01DX009 (ip), vehicle: Klucel (hydroxypropylcellulose) (HPC)) was 0 of 6.
For `OCCN1OCCCC1c1ccccc1` (stereo unspecified), the survivor count [12] was 5 of 6.
In the case of `CN1C(Cl)=NS(=O)(=O)c2ccccc21`, the survivor count [3] is reported as 0 of 6 and the survivor count [4] is reported as 0 of 6.
In the case of `CCOc1c(Br)cc(/C=C(\C)[N+](=O)[O-])cc1OC`, the survivor count [4] is reported as 4 of 6.
With `C=C(Br)C(=NC(C)(C)C)Nc1cccc(Cl)c1` the survivor count [5] was 4 of 5.
For `Cc1c(COC(=O)NC2CCCCC2)c(COC(=O)NC2CCCCC2)c2n1CCc1ccccc1-2`, the survivor count (dose: 100.0 mg/kg/injection, schedule: Q01DX009 (ip), vehicle: distilled water + Tween-80) was 4 of 6 and the survivor count (dose: 200.0 mg/kg/injection, schedule: Q01DX009 (ip), vehicle: distilled water + Tween-80) was 3 of 6.
In the case of `C=C1CC(C)OC1=O` (stereo unspecified), the survivor count [13] is reported as 4 of 6.
With `CC([CH2][Sn]([CH3])([Cl])[c]1ccccc1)c1ccccc1` (stereo unspecified) the survivor count (dose: 25.0 mg/kg/injection, schedule: Q04DX003 (ip), vehicle: saline) was 3 of 6, the survivor count (dose: 50.0 mg/kg/injection, schedule: Q04DX003 (ip), vehicle: saline) was 1 of 6 and the survivor count (dose: 100.0 mg/kg/injection, schedule: Q04DX003 (ip), vehicle: saline) was 0 of 6. For the same molecule, the survivor count [7] was 5 of 6 and the survivor count (dose: 400.0 mg/kg/injection, schedule: Q04DX003 (ip), vehicle: saline with Tween-80) was 4 of 6.
For `CCCCN(CCCC)CC(CN(CC)CC)N(CC)C(=O)Nc1ccccc1` (stereo unspecified), the survivor count (dose: 100.0 mg/kg/injection, schedule: Q01DX005 (ip), vehicle: saline) was 2 of 5 and the survivor count (dose: 200.0 mg/kg/injection, schedule: Q01DX005 (ip), vehicle: saline) was 0 of 5.
In the case of `C(#CC1CO1)CCCC#CC1CO1` (stereo unspecified), the survivor count [9] is reported as 3 of 6 and the survivor count [10] is reported as 0 of 6.
For `COc1ccc(N2C(=O)C(=O)C(C(C)=O)C2=O)cc1` (stereo unspecified), the survivor count [13] was 3 of 6.
With `CSc1nccc(=O)n1-c1ccccc1C` the survivor count (dose: 400.0 mg/kg/injection, schedule: Q04DX002 (ip), vehicle: Klucel (hydroxypropylcellulose) (HPC)) was 0 of 6.
For `Cc1ccc(N2CCCCN(c3ccc(C)cc3)/C(c3ccccc3)=C\2c2ccccc2)cc1`, the survivor count [14] was 5 of 5 and the survivor count [15] was 5 of 5.
For `C=CC(=NC(C)C)NC(C)C`, the survivor count (dose: 6.25 mg/kg/injection, schedule: Q01DX009 (ip), vehicle: saline with Tween-80) was 0 of 6, the survivor count (dose: 6.25 mg/kg/injection, schedule: Q01DX009 (ip), vehicle: saline) was 0 of 6 and the survivor count (dose: 12.5 mg/kg/injection, schedule: Q01DX009 (ip), vehicle: saline with Tween-80) was 0 of 6. For the same molecule, the survivor count (dose: 25.0 mg/kg/injection, schedule: Q01DX009 (ip), vehicle: saline with Tween-80) was 0 of 6, the survivor count (dose: 50.0 mg/kg/injection, schedule: Q01DX009 (ip), vehicle: saline with Tween-80) was 0 of 6 and the survivor count [8] was 0 of 6. The survivor count [12] was 0 of 6.
For `CC1=CC(=O)C(=O)C2=C1OC1(C2)C(C)CCC2C3(C)CCC(O)C(C)(C)C3CCC21C` (stereo unspecified), the T/C (dose: 100.0 mg/kg/injection, schedule: Q01DX005 (ip), vehicle: distilled water + Tween-80) was 135 % of control, the survivor count (dose: 200.0 mg/kg/injection, schedule: Q01DX005 (ip), vehicle: distilled water + Tween-80) was 0 of 5 and the survivor count [10] was 2 of 6.
In the case of `OCC1OC(n2cnc3cncnc32)C(O)C1O` (stereo unspecified), the T/C (dose: 50.0 mg/kg/injection, schedule: Q01DX001 (ip), vehicle: saline) is reported as 127 % of control.
`Cc1oc(C)c(-c2ccccc2)c1C(=O)N1CCN(C)CC1` was tested, and the survivor count [4] was 2 of 6.
`COc1cc(OC)c(C(c2cc3c(cc2O)OCO3)N2CCOCC2)c(OC)c1` (stereo unspecified) was tested, and the survivor count [4] was 6 of 6.
With `CCn1c(Cl)c(/C=N\Nc2ccccc2[N+](=O)[O-])c2ccccc21` the survivor count (dose: 50.0 mg/kg/injection, schedule: Q01DX001 (ip), vehicle: Klucel (hydroxypropylcellulose) (HPC)) was 6 of 6, the survivor count [14] was 6 of 6 and the survivor count [15] was 6 of 6. The survivor count (dose: 400.0 mg/kg/injection, schedule: Q01DX001 (ip), vehicle: Klucel (hydroxypropylcellulose) (HPC)) was 6 of 6.
